The target in assay [1] is T1, Fibronectin type III domain-containing 4 (bovine (endogenous in bovine MDSCs; species of the cloned cDNA not stated)) (UniProt A6QPL2).
T1 sequence: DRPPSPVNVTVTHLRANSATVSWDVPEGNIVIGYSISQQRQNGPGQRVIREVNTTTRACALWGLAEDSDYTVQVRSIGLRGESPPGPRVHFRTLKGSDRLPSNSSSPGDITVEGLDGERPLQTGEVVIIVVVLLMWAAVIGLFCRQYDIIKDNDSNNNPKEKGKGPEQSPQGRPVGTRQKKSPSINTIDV
The experiment in a line: co-IP; lysate (RIPA) of FNDC4-overexpressing, differentiated bovine MDSCs; anti-FNDC4 or anti-ITGβ1 and anti-IgG overnight at 4°C, protein A-agarose; western blot. In general terms: Immunoblotting shows a protein as a band on a membrane.

The chains behind the UniProt entries cited, without tags or fusion partners. Residues count along the entry.
UniProt P53712, residues 21-798: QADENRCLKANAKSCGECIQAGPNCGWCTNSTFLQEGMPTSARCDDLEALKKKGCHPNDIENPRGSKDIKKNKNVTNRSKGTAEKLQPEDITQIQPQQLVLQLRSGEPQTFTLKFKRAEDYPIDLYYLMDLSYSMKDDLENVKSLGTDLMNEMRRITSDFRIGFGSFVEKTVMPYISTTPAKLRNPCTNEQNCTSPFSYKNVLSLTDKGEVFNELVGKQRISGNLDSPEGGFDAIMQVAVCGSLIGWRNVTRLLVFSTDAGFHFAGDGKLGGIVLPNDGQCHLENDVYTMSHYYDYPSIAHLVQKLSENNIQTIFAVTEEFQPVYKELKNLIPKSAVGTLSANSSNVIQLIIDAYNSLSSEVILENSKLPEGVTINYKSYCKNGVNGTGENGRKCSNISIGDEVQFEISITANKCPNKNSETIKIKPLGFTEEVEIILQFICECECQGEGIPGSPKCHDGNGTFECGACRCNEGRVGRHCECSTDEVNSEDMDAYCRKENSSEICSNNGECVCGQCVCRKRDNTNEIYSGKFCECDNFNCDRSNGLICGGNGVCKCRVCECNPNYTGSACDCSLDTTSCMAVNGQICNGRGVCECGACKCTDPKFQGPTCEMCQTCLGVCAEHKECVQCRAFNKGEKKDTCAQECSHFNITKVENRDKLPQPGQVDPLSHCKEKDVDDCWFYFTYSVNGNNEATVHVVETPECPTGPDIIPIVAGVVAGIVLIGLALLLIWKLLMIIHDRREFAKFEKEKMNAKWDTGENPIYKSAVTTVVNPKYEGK

Assay [2] has as its target integrin β1 (bovine (endogenous in bovine MDSCs)) (UniProt P53712). The description is as above.

These are yes or no findings as the source states them, for the method shown. In cells and extracts the contact can be indirect. Some results given as binding are weak or reduced against the parent protein; the word gives no strength.

For the molecule “integrin β1 (from UniProt P53712 21-798) (receptor)”, the binding entry in assay [1] is on record as “binds”.

B1: Fibronectin type III domain-containing 4 (protein, UniProt A6QPL2 41-230)
chain: DRPPSPVNVTVTHLRANSATVSWDVPEGNIVIGYSISQQRQNGPGQRVIREVNTTTRACALWGLAEDSDYTVQVRSIGLRGESPPGPRVHFRTLKGSDRLPSNSSSPGDITVEGLDGERPLQTGEVVIIVVVLLMWAAVIGLFCRQYDIIKDNDSNNNPKEKGKGPEQSPQGRPVGTRQKKSPSINTIDV
On to B1, for which the binding entry in assay [2] was “binds”.

For the origin of these results see publication PMC7513858.
